Source: article doi:10.1101/2025.10.27.684818

B1: LEA10 (ERD14), endogenous (protein, UniProt P42763 1-185)
chain: MAEEIKNVPEQEVPKVATEESSAEVTDRGLFDFLGKKKDETKPEETPIASEFEQKVHISEPEPEVKHESLLEKLHRSDSSSSSSSEEEGSDGEKRKKKKEKKKPTTEVEVKEEEKKGFMEKLKEKLPGHKKPEDGSAVAAAPVVVPPPVEEAHPVEKKGILEKIKEKLPGYHPKTTVEEEKKDKE
B2: REMORIN family protein REM1.3, endogenous (protein, UniProt O80837 1-190)
chain: MAEEQKTSKVDVESPAVLAPAKEPTPAPVEVADEKIHNPPPVESKALAVVEKPIEEHTPKKASSGSADRDVILADLEKEKKTSFIKAWEESEKSKAENRAQKKISDVHAWENSKKAAVEAQLRKIEEKLEKKKAQYGEKMKNKVAAIHKLAEEKRAMVEAKKGEELLKAEEMGAKYRATGVVPKATCGCF
B3: PLASMA MEMBRANE ASSOCIATED CATION-BINDING PROTEIN 1, endogenous (protein, UniProt Q96262 1-225)
chain: MGYWNSKVVPKFKKLFEKNSAKKAAAAEATKTFDESKETINKEIEEKKTELQPKVVETYEATSAEVKALVRDPKVAGLKKNSAAVQKYLEELVKIEFPGSKAVSEASSSFGAGYVAGPVTFIFEKVSVFLPEEVKTKEIPVEEVKAEEPAKTEEPAKTEGTSGEKEEIVEETKKGETPETAVVEEKKPEVEEKKEEATPAPAVVETPVKEPETTTTAPVAEPPKP
B4: LEA4 (COR47), endogenous (protein, UniProt P31168 1-265)
chain: MAEEYKNNVPEHETPTVATEESPATTTEVTDRGLFDFLGKKEEEVKPQETTTLESEFDHKAQISEPELAAEHEEVKENKITLLEELQEKTEEDEENKPSVIEKLHRSNSSSSSSSDEEGEEKKEKKKKIVEGEEDKKGLVEKIKEKLPGHHDKTAEDDVPVSTTIPVPVSESVVEHDHPEEEKKGLVEKIKEKLPGHHDEKAEDSPAVTSTPLVVTEHPVEPTTELPVEHPEEKKGILEKIKEKLPGYHAKTTEEEVKKEKESDD
B5: REDUCED HYPEROSMOLALITY-INDUCED [Ca2+] INCREASE 3 (OSCA3), endogenous (protein, UniProt Q9C8G5 1-724)
chain: MEFGSFLVSLGTSFVIFVILMLLFTWLSRKSGNAPIYYPNRILKGLEPWEGTSLTRNPFAWMREALTSSEQDVVNLSGVDTAVHFVFLSTVLGIFACSSLLLLPTLLPLAATDNNIKNTKNATDTTSKGTFSQLDNLSMANITKKSSRLWAFLGAVYWISLVTYFFLWKAYKHVSSLRAQALMSADVKPEQFAILVRDMPAPPDGQTQKEFIDSYFREIYPETFYRSLVATENSKVNKIWEKLEGYKKKLARAEAILAATNNRPTNKTGFCGLVGKQVDSIEYYTELINESVAKLETEQKAVLAEKQQTAAVVFFTTRVAAASAAQSLHCQMVDKWTVTEAPEPRQLLWQNLNIKLFSRIIRQYFIYFFVAVTILFYMIPIAFVSAITTLKNLQRIIPFIKPVVEITAIRTVLESFLPQIALIVFLAMLPKLLLFLSKAEGIPSQSHAIRAASGKYFYFSVFNVFIGVTLAGTLFNTVKDIAKNPKLDMIINLLATSLPKSATFFLTYVALKFFIGYGLELSRIIPLIIFHLKKKYLCKTEAEVKEAWYPGDLSYATRVPGDMLILTITFCYSVIAPLILIFGITYFGLGWLVLRNQALKVYVPSYESYGRMWPHIHQRILAALFLFQVVMFGYLGAKTFFYTALVIPLIITSLIFGYVCRQKFYGGFEHTALEVACRELKQSPDLEEIFRAYIPHSLSSHKPEEHEFKGAMSRYQDFNAIAGV
B6: PHOSPHOLIPASE D ALPHA 1 (PLDα1), endogenous (enzyme, UniProt Q38882 1-810)
chain: MAQHLLHGTLHATIYEVDALHGGGVRQGFLGKILANVEETIGVGKGETQLYATIDLQKARVGRTRKIKNEPKNPKWYESFHIYCAHLASDIIFTVKDDNPIGATLIGRAYIPVDQVINGEEVDQWVEILDNDRNPIQGGSKIHVKLQYFHVEEDRNWNMGIKSAKFPGVPYTFFSQRQGCKVSLYQDAHIPDNFVPRIPLAGGKNYEPQRCWEDIFDAISNAKHLIYITGWSVYAEIALVRDSRRPKPGGDVTIGELLKKKASEGVRVLLLVWDDRTSVDVLKKDGLMATHDEETENFFRGSDVHCILCPRNPDDGGSIVQSLQISTMFTHHQKIVVVDSEMPSRGGSEMRRIVSFVGGIDLCDGRYDTPFHSLFRTLDTVHHDDFHQPNFTGAAITKGGPREPWHDIHSRLEGPIAWDVMYNFEQRWSKQGGKDILVKLRDLSDIIITPSPVMFQEDHDVWNVQLFRSIDGGAAAGFPESPEAAAEAGLVSGKDNIIDRSIQDAYIHAIRRAKDFIYVENQYFLGSSFAWAADGITPEDINALHLIPKELSLKIVSKIEKGEKFRVYVVVPMWPEGLPESGSVQAILDWQRRTMEMMYKDVIQALRAQGLEEDPRNYLTFFCLGNREVKKDGEYEPAEKPDPDTDYMRAQEARRFMIYVHTKMMIVDDEYIIIGSANINQRSMDGARDSEIAMGGYQPHHLSHRQPARGQIHGFRMSLWYEHLGMLDETFLDPSSLECIEKVNRISDKYWDFYSSESLEHDLPGHLLRYPIGVASEGDITELPGFEFFPDTKARILGTKSDYLPPILTT
B7: PLASMA MEMBRANE … PROTEIN PIP2A, endogenous (protein, UniProt P43286 1-287)
chain: MAKDVEAVPGEGFQTRDYQDPPPAPFIDGAELKKWSFYRAVIAEFVATLLFLYITVLTVIGYKIQSDTDAGGVDCGGVGILGIAWAFGGMIFILVYCTAGISGGHINPAVTFGLFLARKVSLPRALLYIIAQCLGAICGVGFVKAFQSSYYTRYGGGANSLADGYSTGTGLAAEIIGTFVLVYTVFSATDPKRSARDSHVPVLAPLPIGFAVFMVHLATIPITGTGINPARSFGAAVIYNKSKPWDDHWIFWVGPFIGAAIAAFYHQFVLRASGSKSLGSFRSAANV
B8: copper chaperone AT3G56240, endogenous (protein, UniProt O82089 1-121)
chain: MAQTVVLKVGMSCQGCVGAVNRVLGKMEGVESFDIDIKEQKVTVKGNVEPEAVFQTVSKTGKKTSYWPVEAEAEPKAEADPKVETVTETKTEAETKTEAKVDAKADVEPKAAEAETKPSQV
B9: LEA5 (ERD10), endogenous (protein, UniProt P42759 1-260)
chain: MAEEYKNTVPEQETPKVATEESSAPEIKERGMFDFLKKKEEVKPQETTTLASEFEHKTQISEPESFVAKHEEEEHKPTLLEQLHQKHEEEEENKPSLLDKLHRSNSSSSSSSDEEGEDGEKKKKEKKKKIVEGDHVKTVEEENQGVMDRIKEKFPLGEKPGGDDVPVVTTMPAPHSVEDHKPEEEEKKGFMDKIKEKLPGHSKKPEDSQVVNTTPLVETATPIADIPEEKKGFMDKIKEKLPGYHAKTTGEEEKKEKVSD

Experiments:
Test in all cases: affinity purification with mass spectrometry
[1] = biological target: T1, LEA5-GFP (pLEA5:LEA5-GFP translational reporter) (Arabidopsis thaliana (Col-0)) (UniProt P42759)
T1 sequence: B9 chain

[2] = biological target: T2, LEA4-GFP (pLEA4:LEA4-GFP translational reporter) (Arabidopsis thaliana (Col-0)) (UniProt P31168)
T2 sequence: B4 chain

[3] = biological target: T1, LEA5-GFP (pLEA5:LEA5-GFP translational reporter) (Arabidopsis thaliana (Col-0)); remark: listed apart in the source
[4] = biological target: T3, LEA10-GFP (pLEA10:LEA10-GFP translational reporter) (Arabidopsis thaliana (Col-0)) (UniProt P42763)
T3 sequence: B1 chain

Row | Molecule | binding [1] | binding [2] | binding [3] | binding [4]
1 | REMORIN1.2, endogenous | binds | – | – | –
2 | HSP70-interacting protein 1, endogenous | binds | – | – | –
3 | B1 | – | binds | binds | –
4 | B2 | – | binds | binds | binds
5 | B3 | – | binds | binds | binds
6 | B4 | – | – | binds | binds
7 | B5 | – | – | binds | –
8 | B6 | – | – | binds | –
9 | B7 | – | binds | binds | binds
10 | B8 | – | – | binds | –
11 | B9 | – | binds | – | –

Like-named read-outs stand apart in the source and are kept apart here. Results are given in words; binding and its absence hold for the method and conditions named. In cells and extracts the contact can be indirect. These calls come from enrichment with a bait or labelling near it, and not all partners need be listed. Sequences can lack the tags named with a protein.
